Measured values taken from patent US20250034218A1, “ANTIMICROBIAL PEPTIDES” (BiomEdit, LLC, priority 2021, published 2025).
At least one structure is not confirmed: it was looked up by name or label, or the drawing left a doubt.

Tested on: Giardia trophozoites
Experiment: Giardia trophozoite test tube assay, light microscopy
Type: cell-based
Settings: AMP01 100 μM, FOR 5 μM
Procedure: Test tube with a confluent layer of trophozoites is treated with AMP01 (100 μM). Light microscopy, counting of detached dead or alive (i.e. motile) trophozoites is then conducted. Formononetin (5 μM; FOR) is used for comparison as a positive control.
The changes in morphology were still visible one day after the treatment and are depicted in FIG. 3 (photographs all taken at 100×). After 1 d, the trophozoites in the control tube (FIG. 3A) were fully alive (and overgrowing), as expected. […] The different sizes of the trophozoites can be noted by comparing the white circles. Similar effects were observed using cytotoxic anti-variant surface protein antibodies (Hemphil et al. 1996).

**Q.** What does the source list for `COc1ccc(-c2coc3cc(O)ccc3c2=O)cc1` [FOR, Formononetin]?
**A.** detachment of trophozoites (after 1 h): nearly complete detachment; morphology and motility of detached trophozoites (after 1 h): pear-shaped and motile; state of trophozoites (after 1 d): still pear shaped, but with a grainy cytosol and most likely dead
